# Data from patent US8541395B2 (priority 2009, dated 2013).
# Amino acid sequences for entries named in this document (tags omitted).
# UniProt Q14524, whole entry: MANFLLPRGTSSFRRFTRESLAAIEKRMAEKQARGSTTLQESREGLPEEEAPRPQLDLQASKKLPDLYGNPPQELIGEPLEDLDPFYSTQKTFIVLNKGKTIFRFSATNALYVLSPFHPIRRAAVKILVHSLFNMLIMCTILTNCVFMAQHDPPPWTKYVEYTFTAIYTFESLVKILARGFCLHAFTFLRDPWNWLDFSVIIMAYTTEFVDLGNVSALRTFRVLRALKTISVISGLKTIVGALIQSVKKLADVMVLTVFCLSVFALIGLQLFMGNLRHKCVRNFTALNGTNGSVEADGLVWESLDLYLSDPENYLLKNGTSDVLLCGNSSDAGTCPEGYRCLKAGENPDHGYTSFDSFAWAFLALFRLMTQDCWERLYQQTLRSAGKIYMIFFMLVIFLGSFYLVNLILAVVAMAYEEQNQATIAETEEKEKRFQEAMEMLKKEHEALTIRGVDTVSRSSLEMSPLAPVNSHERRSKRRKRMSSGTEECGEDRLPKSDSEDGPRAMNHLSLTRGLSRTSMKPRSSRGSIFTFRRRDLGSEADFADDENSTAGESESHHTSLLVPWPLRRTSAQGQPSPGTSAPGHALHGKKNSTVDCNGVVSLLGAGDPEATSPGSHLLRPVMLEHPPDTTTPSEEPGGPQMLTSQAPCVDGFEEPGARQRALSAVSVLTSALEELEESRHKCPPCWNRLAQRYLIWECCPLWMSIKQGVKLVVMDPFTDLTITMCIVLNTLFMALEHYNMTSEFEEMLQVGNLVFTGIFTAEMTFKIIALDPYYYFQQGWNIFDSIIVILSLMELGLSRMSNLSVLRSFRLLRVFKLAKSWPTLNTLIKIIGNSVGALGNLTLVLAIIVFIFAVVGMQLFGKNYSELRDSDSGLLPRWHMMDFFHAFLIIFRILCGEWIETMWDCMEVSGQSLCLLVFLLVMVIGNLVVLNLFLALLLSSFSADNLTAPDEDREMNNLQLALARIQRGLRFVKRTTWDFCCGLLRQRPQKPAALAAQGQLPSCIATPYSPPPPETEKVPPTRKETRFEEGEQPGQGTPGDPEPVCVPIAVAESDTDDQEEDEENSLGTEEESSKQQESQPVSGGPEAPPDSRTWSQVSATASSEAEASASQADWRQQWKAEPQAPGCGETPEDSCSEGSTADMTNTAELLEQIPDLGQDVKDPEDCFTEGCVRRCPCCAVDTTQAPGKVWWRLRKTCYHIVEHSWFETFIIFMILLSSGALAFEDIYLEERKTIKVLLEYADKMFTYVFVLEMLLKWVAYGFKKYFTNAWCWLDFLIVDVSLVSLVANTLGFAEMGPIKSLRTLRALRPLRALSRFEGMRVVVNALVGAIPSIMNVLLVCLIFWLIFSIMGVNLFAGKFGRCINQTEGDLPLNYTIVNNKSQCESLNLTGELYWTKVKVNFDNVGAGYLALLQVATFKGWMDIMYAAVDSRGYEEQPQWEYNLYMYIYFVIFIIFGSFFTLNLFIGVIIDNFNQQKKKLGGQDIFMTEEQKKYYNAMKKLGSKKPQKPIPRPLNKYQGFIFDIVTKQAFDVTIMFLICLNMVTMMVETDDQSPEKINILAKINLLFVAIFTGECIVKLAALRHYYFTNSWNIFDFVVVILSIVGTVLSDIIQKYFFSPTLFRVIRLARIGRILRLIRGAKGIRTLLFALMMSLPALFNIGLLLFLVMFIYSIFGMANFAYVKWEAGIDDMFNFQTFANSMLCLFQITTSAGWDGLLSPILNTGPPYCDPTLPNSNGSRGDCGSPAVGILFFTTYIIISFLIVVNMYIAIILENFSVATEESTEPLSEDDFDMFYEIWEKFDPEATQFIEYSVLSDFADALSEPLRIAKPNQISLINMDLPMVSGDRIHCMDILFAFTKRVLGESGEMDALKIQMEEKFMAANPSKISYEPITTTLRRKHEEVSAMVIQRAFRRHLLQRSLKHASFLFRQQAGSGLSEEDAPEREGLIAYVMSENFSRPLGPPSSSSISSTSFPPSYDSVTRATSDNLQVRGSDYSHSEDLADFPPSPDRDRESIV
# Target: Nav1.5 (Homo sapiens, UniProt Q14524)
# Test: in vitro
# Details: cells (cell line not given) carrying the Nav1.5 channel, Mean % inhibition (positive control), n=2
compound,measurement,value
CCN(CC)CC(=O)Nc1c(C)cccc1C [Lidocaine],"inhibition at 5 min, 2000 µM",98.5%
